Assay [1] deals with p97-Myc. Briefly: p97-Myc co-IP, 293 cells, MudPIT MS.
The target of assay [2] is p97-Myc. Nature of the assay: p97-Myc co-IP, HeLa cells, MG132, western blot.

No constants are given. Whether binding was seen depends on the method and setting. In cells and extracts the contact can be indirect. Binding can be weak; no strength is given.

B1: endogenous UBXD7 (protein, human, UniProt O94888 2-489, looked up)
chain: AAHGGSAASSALKGLIQQFTTITGASESVGKHMLEACNNNLEMAVTMFLDGGGIAEEPSTSSASVSTVRPHTEEEVRAPIPQKQEILVEPEPLFGAPKRRRPARSIFDGFRDFQTETIRQEQELRNGGAIDKKLTTLADLFRPPIDLMHKGSFETAKECGQMQNKWLMINIQNVQDFACQCLNRDVWSNEAVKNIIREHFIFWQVYHDSEEGQRYIQFYKLGDFPYVSILDPRTGQKLVEWHQLDVSSFLDQVTGFLGEHGQLDGLSSSPPKKCARSESLIDASEDSQLEAAIRASLQETHFDSTQTKQDSRSDEESESELFSGSEEFISVCGSDEEEEVENLAKSRKSPHKDLGHRKEENRRPLTEPPVRTDPGTATNHQGLPAVDSEILEMPPEKADGVVEGIDVNGPKAQLMLRYPDGKREQITLPEQAKLLALVKHVQSKGYPNERFELLTNFPRRKLSHLDYDITLQEAGLCPQETVFVQERN
With B1, the binding result in the assay with p97-Myc [1] and with p97-Myc [2] was “binds” each time.

Source of the values: patent US20090192084A1.
